Assay results as given in the supplement of paper PMC10849652.
The other results are listed elsewhere or left out.

The chains behind the UniProt entries cited, without tags or fusion partners. Where a name states a change or a piece, a line headed by the entry shows the natural chain unless it says otherwise.
UniProt Q8N1G4: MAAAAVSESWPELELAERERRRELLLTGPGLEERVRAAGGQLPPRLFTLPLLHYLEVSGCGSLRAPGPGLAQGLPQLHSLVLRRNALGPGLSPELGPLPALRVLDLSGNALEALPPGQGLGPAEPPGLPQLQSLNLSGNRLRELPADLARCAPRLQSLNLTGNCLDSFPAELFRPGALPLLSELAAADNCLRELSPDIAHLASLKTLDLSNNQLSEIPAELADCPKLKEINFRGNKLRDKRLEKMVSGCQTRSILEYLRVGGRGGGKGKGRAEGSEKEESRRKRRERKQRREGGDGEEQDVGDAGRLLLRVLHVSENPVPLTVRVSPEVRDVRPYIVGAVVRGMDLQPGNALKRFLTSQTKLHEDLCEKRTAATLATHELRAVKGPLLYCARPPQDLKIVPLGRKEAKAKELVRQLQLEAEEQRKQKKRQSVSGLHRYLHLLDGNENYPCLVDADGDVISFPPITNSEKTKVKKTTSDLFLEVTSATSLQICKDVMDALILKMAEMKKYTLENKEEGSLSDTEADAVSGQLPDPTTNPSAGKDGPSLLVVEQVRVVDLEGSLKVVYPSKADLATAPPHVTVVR
UniProt P36776: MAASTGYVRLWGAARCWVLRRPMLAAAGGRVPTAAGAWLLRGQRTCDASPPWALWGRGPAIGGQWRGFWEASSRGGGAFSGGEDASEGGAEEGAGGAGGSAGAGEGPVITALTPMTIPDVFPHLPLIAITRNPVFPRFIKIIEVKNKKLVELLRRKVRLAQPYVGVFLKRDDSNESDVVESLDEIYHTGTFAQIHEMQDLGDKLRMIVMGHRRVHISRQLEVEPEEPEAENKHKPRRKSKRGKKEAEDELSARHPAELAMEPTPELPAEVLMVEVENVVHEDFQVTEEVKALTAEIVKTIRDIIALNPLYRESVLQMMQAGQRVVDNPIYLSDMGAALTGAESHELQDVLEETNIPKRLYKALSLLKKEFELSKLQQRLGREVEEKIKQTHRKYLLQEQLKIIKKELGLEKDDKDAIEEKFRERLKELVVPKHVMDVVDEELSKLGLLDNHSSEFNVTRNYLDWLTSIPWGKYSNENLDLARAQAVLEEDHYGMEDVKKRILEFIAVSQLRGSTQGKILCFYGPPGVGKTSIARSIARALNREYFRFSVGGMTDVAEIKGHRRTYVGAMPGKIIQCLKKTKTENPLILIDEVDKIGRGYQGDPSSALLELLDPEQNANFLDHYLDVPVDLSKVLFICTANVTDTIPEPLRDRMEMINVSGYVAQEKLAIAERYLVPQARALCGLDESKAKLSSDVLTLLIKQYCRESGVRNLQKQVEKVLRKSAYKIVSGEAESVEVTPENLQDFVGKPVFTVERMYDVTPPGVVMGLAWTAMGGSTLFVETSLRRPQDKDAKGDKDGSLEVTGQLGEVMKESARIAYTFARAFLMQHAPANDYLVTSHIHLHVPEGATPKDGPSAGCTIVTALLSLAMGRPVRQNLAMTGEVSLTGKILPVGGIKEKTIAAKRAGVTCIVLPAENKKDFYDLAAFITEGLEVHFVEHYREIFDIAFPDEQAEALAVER
UniProt P01130: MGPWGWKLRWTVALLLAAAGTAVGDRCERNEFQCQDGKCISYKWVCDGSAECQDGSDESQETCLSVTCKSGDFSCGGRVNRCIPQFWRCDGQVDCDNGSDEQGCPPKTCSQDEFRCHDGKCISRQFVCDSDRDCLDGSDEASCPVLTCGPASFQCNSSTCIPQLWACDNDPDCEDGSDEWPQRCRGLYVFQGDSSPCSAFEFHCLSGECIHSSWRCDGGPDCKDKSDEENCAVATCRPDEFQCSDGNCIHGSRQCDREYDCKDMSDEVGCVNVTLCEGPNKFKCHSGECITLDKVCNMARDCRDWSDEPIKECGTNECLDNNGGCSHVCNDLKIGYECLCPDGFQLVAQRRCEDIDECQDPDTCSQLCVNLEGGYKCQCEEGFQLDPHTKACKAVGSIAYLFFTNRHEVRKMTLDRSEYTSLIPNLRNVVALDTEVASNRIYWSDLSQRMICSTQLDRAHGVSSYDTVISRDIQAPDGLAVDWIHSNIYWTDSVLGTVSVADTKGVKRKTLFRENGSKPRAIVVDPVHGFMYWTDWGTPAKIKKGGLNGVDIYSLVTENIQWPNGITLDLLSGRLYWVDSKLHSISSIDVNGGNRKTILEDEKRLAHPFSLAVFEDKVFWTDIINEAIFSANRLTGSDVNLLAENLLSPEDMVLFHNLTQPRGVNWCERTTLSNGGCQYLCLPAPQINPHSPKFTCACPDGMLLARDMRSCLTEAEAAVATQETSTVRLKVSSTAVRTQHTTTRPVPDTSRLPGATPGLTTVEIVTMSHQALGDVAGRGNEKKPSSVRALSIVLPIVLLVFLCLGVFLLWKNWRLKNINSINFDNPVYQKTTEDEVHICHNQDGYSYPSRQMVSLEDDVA
UniProt P48449: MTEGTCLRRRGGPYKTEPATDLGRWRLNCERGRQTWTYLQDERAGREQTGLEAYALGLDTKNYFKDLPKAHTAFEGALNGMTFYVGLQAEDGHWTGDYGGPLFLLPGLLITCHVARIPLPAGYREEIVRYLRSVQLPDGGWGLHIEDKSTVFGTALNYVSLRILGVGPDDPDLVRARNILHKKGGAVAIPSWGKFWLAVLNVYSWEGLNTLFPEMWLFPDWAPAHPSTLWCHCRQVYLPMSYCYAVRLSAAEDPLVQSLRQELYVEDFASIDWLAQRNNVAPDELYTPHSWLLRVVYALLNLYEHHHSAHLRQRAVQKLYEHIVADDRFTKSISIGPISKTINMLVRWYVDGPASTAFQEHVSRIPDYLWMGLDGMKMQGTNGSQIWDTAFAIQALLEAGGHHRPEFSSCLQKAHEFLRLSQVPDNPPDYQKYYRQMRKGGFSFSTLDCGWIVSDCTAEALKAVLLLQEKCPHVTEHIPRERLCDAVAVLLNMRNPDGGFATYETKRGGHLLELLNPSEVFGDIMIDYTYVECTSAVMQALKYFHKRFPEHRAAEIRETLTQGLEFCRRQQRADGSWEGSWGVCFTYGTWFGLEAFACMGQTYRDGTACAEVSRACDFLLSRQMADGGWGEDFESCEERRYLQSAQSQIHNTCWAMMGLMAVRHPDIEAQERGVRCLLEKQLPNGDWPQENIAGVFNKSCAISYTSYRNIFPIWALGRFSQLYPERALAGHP
UniProt Q9BX40: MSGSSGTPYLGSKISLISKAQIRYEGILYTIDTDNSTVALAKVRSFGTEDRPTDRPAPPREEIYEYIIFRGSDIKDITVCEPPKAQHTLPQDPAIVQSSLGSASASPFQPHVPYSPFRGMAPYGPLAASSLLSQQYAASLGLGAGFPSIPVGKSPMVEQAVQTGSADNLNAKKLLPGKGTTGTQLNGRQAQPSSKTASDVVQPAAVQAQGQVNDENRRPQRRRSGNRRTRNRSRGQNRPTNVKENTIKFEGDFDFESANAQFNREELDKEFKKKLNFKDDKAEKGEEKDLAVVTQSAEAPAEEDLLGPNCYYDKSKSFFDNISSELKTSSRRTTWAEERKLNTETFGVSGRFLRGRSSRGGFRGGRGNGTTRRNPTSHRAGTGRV
UniProt Q8ND56: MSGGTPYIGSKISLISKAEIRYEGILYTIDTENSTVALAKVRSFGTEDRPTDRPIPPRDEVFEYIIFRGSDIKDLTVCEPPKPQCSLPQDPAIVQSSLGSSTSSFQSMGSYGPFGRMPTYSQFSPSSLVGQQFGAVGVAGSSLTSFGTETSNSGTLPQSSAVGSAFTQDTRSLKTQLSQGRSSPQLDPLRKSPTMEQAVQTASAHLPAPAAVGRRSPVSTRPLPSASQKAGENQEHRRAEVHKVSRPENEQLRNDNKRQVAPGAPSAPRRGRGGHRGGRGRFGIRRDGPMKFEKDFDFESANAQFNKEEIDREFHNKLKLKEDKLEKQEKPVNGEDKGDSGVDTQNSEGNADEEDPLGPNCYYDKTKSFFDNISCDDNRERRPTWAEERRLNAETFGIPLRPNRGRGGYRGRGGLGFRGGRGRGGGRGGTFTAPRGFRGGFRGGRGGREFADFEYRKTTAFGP
UniProt Q14847: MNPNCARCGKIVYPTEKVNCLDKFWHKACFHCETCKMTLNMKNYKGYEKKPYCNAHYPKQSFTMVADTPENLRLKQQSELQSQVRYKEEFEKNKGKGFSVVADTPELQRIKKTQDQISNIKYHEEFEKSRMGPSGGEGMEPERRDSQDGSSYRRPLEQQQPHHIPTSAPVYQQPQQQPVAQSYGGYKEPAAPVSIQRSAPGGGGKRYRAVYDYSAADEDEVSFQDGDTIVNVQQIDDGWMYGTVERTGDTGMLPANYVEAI
UniProt P17931, whole entry, looked up: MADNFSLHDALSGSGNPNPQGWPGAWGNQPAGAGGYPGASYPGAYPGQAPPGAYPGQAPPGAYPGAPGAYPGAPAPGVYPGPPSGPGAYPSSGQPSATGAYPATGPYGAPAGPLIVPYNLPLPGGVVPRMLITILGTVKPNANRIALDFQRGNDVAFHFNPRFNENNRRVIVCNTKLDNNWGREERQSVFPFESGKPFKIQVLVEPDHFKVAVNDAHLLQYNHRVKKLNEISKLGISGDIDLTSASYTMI
UniProt O43766: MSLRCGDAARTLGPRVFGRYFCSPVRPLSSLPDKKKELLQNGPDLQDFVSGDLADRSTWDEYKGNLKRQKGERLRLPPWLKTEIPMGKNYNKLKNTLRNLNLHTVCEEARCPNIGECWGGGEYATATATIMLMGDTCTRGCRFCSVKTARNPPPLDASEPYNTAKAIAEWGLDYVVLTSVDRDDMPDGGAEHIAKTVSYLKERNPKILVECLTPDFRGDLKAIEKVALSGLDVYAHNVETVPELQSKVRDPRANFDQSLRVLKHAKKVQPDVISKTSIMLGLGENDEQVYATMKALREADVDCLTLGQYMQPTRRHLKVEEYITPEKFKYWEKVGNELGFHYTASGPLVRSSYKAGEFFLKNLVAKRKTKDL
UniProt P09960: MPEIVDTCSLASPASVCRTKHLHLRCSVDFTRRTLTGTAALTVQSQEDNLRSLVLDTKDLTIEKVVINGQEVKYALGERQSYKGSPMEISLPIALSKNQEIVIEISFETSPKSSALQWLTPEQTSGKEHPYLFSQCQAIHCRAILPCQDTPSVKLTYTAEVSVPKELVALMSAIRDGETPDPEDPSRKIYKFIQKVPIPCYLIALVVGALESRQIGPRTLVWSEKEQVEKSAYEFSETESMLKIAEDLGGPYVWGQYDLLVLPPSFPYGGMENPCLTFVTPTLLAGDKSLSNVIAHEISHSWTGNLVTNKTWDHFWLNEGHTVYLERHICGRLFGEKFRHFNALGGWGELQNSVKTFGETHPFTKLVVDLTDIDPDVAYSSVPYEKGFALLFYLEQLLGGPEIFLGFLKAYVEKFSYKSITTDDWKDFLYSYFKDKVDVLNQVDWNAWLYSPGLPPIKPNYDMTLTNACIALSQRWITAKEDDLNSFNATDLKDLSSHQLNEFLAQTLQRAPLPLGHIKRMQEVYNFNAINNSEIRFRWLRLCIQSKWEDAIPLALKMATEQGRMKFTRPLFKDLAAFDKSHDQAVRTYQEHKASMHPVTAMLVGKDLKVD
UniProt Q96PV6, whole entry, looked up: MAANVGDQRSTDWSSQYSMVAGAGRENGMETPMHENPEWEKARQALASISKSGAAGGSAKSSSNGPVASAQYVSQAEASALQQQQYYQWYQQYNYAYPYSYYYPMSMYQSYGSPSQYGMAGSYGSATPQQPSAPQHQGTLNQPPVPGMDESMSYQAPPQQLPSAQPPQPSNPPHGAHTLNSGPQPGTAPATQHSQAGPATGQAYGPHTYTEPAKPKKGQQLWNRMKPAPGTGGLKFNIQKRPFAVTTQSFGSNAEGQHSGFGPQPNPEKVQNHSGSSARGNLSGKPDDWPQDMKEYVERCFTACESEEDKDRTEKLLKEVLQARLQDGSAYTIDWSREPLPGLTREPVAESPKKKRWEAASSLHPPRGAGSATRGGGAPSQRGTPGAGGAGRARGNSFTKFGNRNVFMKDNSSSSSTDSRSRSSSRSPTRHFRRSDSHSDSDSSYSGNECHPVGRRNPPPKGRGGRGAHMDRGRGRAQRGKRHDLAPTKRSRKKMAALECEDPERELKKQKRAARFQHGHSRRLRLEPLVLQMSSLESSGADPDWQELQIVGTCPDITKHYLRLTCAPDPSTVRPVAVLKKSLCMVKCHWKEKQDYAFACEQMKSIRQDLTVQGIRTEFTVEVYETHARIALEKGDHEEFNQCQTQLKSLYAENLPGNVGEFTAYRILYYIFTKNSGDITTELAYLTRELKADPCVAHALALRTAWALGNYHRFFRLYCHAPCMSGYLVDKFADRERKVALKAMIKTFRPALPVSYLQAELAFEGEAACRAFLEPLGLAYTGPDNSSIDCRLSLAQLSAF
UniProt Q9Y4Z0: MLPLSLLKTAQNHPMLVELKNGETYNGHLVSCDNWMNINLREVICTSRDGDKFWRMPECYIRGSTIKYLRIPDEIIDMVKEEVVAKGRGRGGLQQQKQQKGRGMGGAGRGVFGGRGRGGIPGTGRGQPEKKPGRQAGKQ

Key:
Assay in all cases: log2 fold change, soluble protein after heating vs DMSO (PISA); higher = thermal stabilisation; K562 lysate, 10 uM; active = over 0.2 and 3.5 SD of the protein, either way, in both replicates (recomputed)
[1] = compound: C#Cc1cccc(Nc2ncnc3cc(OCCOC)c(OCCOC)cc23)c1 [erlotinib]
Method in brief: (§1)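 Dounce homogenisation of K562 pellets in PBS pH 7.4 with 1 mM MgCl2 produced a crude extract, used at 1 mg/mL protein. Exposure to 10 μM compound lasted 30 min, and aliquots were then heated for 3 min across 48°C-58°C, pooled and brought to 0.5% NP-40 at 4°C. The supernatant after 21,000xg for 90 min was quantified by TMTpro 16plex LC-MS/MS with channel sums equalised. Duplicate values are given as log-two fold change in thermal stability relative to solvent controls.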

[2] = compound: C/C(=N\NC(=O)C1=CC(=CC=C1)S(=O)(=O)N2CCOCC2)/C3=C(C=CC(=C3)Cl)O
Method in brief: as §1

[3] = compound: C1=CC(=CC=C1C2=NC3=C(N2)C=C(C=C3)C(=O)N)OC4=CC=C(C=C4)Cl
Method in brief: as §1

[4] = compound: C1=CC2=C(C=CC(=C2)/C=C\3/C(=O)NC(=NCC4=CC=CS4)S3)N=C1
Method in brief: as §1

[5] = compound: C1=CC2=NC=CN=C2C=C1/C=C/3\C(=O)NC(=O)S3
Method in brief: as §1

[6] = compound: C1=CC=C(C=C1)C2=NC(=C(N2)C3=CC=NC=C3)C4=CC(=C(C=C4)Cl)O
Method in brief: as §1

[7] = compound: C1=CC=C2C(=C1)C3=NNC4=CC=CC(=C43)C2=O
Method in brief: as §1

[8] = compound: C1CCN(C1)C(=O)NC2=CC=CC(=C2)NC3=NC=C(C(=N3)NCCC4=CN=CN4)Br
Method in brief: as §1

[9] = compound: C1CN(CCC1(CC2=CC=C(C=C2)Cl)N)C3=NC=NC4=C3C=CN4
Method in brief: as §1

[10] = compound: C1COCCN1CCN2C3=CC=CC=C3N=C2NC(=O)C4=CC(=CC=C4)[N+](=O)[O-] [IRAK-1-4 Inhibitor I]
Method in brief: as §1

[11] = compound: C=CC(=O)N1CCC[C@@H](n2nc(-c3ccc(Oc4ccccc4)cc3)c3c(N)ncnc32)C1 [ibrutinib]
Method in brief: as §1

[12] = compound: CC(=O)c1cnc2ccc(-c3cc(Cl)c(O)c(Cl)c3)nc2c1N[C@H]1CC[C@H](CN(C)C)CC1
Method in brief: as §1

[13] = compound: CC(C)(C)Cn1c(N)nc2ccc(-c3[nH]c(C(C)(C)C)nc3-c3ccc(F)cc3)nc21 [ralimetinib]
Method in brief: as §1

[14] = compound: CC(C)(O)CC(=O)NCCn1ccc2ncnc(Nc3ccc(Oc4cccc(C(F)(F)F)c4)c(Cl)c3)c21
Method in brief: as §1

[15] = compound: CC(C)C1=C2N=C(C=C(N2N=C1)NCC3=CC=CC=C3)NCCCCCCN
Method in brief: as §1

[16] = compound: CC1=C(C(CC(=O)N1)C2=CC=C(C=C2)C(F)(F)F)C(=O)NC3=C(C=C4C(=C3)C=NN4)F
Method in brief: as §1

[17] = compound: CC1=C(C2=C(C=C1)C(=O)C3=CC=CC=C3N2CCCN)C
Method in brief: as §1

[18] = compound: CC1=C(C=C(C=C1)NC(=O)C2=CC(=CC=C2)C(C)(C)C#N)NC3=CC4=C(C=C3)N=CN(C4=O)C
Method in brief: as §1

[19] = compound: CC1=C(C=C(C=C1)NC(=O)C2=CC(=CC=C2)N(C)C)NC(=O)C3=CC=C(C=C3)O
Method in brief: as §1

[20] = compound: CC1=CC=C(C=C1)SC2=C3C=C(SC3=CN=C2)C(=O)N
Method in brief: as §1

Row | Target | log2 fold change [1] | log2 fold change [2] | log2 fold change [3] | log2 fold change [4] | log2 fold change [5] | log2 fold change [6] | log2 fold change [7] | log2 fold change [8] | log2 fold change [9] | log2 fold change [10] | log2 fold change [11] | log2 fold change [12] | log2 fold change [13] | log2 fold change [14] | log2 fold change [15] | log2 fold change [16] | log2 fold change [17] | log2 fold change [18] | log2 fold change [19] | log2 fold change [20]
1 | LRRC47 (UniProt Q8N1G4) | inactive: -0.018 | inactive: 0.042 | inactive: -0.007 | inactive: -0.009 | inactive: 0.005 | inactive: 0.003 | inactive: 0.016 | inactive: 0.008 | inactive: 0.006 | inactive: 0.01 | inactive: -0.014 | inactive: -0.009 | inactive: -0.005 | inactive: -0.009 | inactive: 0 | inactive: -0.028 | inactive: 0.012 | inactive: 0.012 | inactive: -0.005 | inactive: 0
2 | LPCAT1 (UniProt Q8NF37) | inactive: 0.056 | inactive: -0.052 | inactive: -0.057 | inactive: 0.054 | inactive: 0.062 | inactive: -0.09 | inactive: -0.014 | inactive: -0.007 | inactive: -0.025 | inactive: 0.04 | inactive: 0.175 | inactive: -0.021 | inactive: 0 | inactive: -0.142 | inactive: -0.036 | inactive: 0.066 | inactive: -0.011 | inactive: 0.003 | inactive: -0.016 | inactive: -0.019
3 | LONP1 (UniProt P36776) | inactive: -0.001 | inactive: -0.04 | inactive: 0.024 | inactive: 0.005 | inactive: -0.016 | inactive: 0.002 | inactive: 0.002 | inactive: 0.027 | inactive: 0.014 | inactive: -0.019 | inactive: -0.023 | inactive: -0.038 | inactive: 0.003 | inactive: -0.003 | inactive: 0.006 | inactive: -0.013 | inactive: -0.012 | inactive: -0.031 | inactive: -0.003 | inactive: -0.015
4 | LDLR (UniProt P01130) | inactive: 0.08 | inactive: -0.157 | inactive: -0.11 | inactive: -0.062 | inactive: -0.007 | inactive: -0.012 | inactive: -0.006 | inactive: -0.033 | inactive: 0.094 | inactive: -0.087 | inactive: 0.043 | inactive: -0.012 | inactive: -0.003 | inactive: -0.085 | inactive: -0.133 | inactive: -0.276 | inactive: 0.035 | inactive: 0.006 | inactive: 0.014 | inactive: 0
5 | LSS (UniProt P48449) | inactive: -0.023 | inactive: 0.057 | inactive: 0.001 | inactive: 0.053 | inactive: -0.005 | inactive: 0.037 | inactive: -0.006 | inactive: -0.094 | inactive: 0.019 | inactive: 0 | inactive: -0.009 | inactive: -0.018 | inactive: 0.14 | inactive: 0.072 | inactive: 0.026 | inactive: 0.013 | inactive: -0.131 | inactive: -0.003 | inactive: -0.04 | inactive: -0.065
6 | LARS2 (UniProt Q15031) | inactive: 0.027 | inactive: 0.033 | active: 0.549 | inactive: -0.012 | inactive: -0.041 | inactive: 0.014 | inactive: 0.029 | inactive: 0.03 | inactive: 0.039 | inactive: -0.021 | inactive: 0.009 | inactive: 0.034 | inactive: 0.026 | inactive: 0.156 | inactive: -0.027 | inactive: 0.02 | inactive: 0.063 | inactive: -0.036 | inactive: 0.046 | inactive: 0.028
7 | LSM14B isoform 2 (UniProt Q9BX40) | inactive: -0.027 | inactive: -0.05 | inactive: -0.013 | inactive: -0.015 | inactive: -0.055 | inactive: -0.05 | inactive: 0.054 | inactive: -0.044 | inactive: 0.043 | inactive: -0.009 | inactive: 0.024 | inactive: 0.001 | inactive: 0.029 | inactive: 0.135 | inactive: -0.001 | inactive: -0.012 | inactive: 0.019 | inactive: -0.001 | inactive: 0.027 | inactive: 0.035
8 | LSM14A isoform 2 (UniProt Q8ND56) | inactive: 0.01 | inactive: -0.09 | inactive: 0.008 | inactive: 0.021 | inactive: 0.007 | inactive: -0.027 | inactive: 0.036 | inactive: 0.015 | inactive: 0.01 | inactive: 0.021 | inactive: -0.056 | inactive: -0.005 | inactive: -0.016 | inactive: 0.022 | inactive: -0.009 | inactive: -0.005 | inactive: 0.037 | inactive: 0.036 | inactive: -0.001 | inactive: -0.028
9 | LNPEP (UniProt Q9UIQ6) | inactive: 0 | inactive: -0.065 | inactive: 0.025 | inactive: 0.013 | inactive: 0.005 | inactive: 0.009 | inactive: 0.01 | inactive: 0.003 | inactive: 0.014 | inactive: 0.008 | inactive: 0.016 | inactive: -0.044 | inactive: 0.024 | inactive: 0.002 | inactive: -0.015 | inactive: -0.004 | inactive: -0.002 | inactive: 0.022 | inactive: 0.003 | inactive: -0.055
10 | LASP1 (UniProt Q14847) | inactive: -0.014 | inactive: -0.005 | inactive: -0.041 | inactive: -0.01 | inactive: -0.031 | inactive: 0.031 | inactive: 0.007 | inactive: 0.03 | inactive: 0.001 | inactive: -0.017 | inactive: 0.019 | inactive: -0.014 | inactive: -0.031 | inactive: 0.011 | inactive: -0.026 | inactive: -0.007 | inactive: -0.009 | inactive: 0.008 | inactive: 0.013 | inactive: -0.013
11 | LGALS3 (UniProt P17931) | inactive: 0.065 | inactive: 0.418 | inactive: -0.021 | inactive: 0.081 | inactive: 0.114 | inactive: -0.05 | inactive: 0.046 | inactive: -0.136 | inactive: -0.16 | inactive: -0.193 | inactive: -0.166 | inactive: -0.056 | inactive: -0.104 | inactive: 0.168 | inactive: 0.011 | inactive: 0.161 | inactive: 0.396 | inactive: -0.022 | inactive: 0.015 | inactive: -0.067
12 | LIAS (UniProt O43766) | inactive: -0.051 | inactive: -0.021 | inactive: 0.042 | inactive: -0.085 | inactive: -0.005 | inactive: 0.064 | inactive: 0.03 | inactive: -0.041 | inactive: -0.018 | inactive: 0.026 | inactive: 0.051 | inactive: 0.047 | inactive: -0.028 | inactive: -0.047 | inactive: -0.063 | inactive: -0.003 | inactive: -0.025 | inactive: -0.006 | inactive: -0.018 | inactive: 0.022
13 | LTA4H (UniProt P09960) | inactive: -0.022 | inactive: 0.001 | inactive: 0.004 | inactive: -0.002 | inactive: -0.009 | inactive: 0 | inactive: 0.041 | inactive: 0.021 | inactive: 0.016 | inactive: 0.009 | inactive: 0.025 | inactive: 0.017 | inactive: 0.013 | inactive: -0.004 | inactive: -0.009 | inactive: -0.025 | inactive: 0.012 | inactive: -0.016 | inactive: -0.01 | inactive: -0.017
14 | LENG8 (UniProt Q96PV6) | inactive: 0.023 | inactive: 0.047 | inactive: -0.007 | inactive: -0.07 | inactive: 0.027 | inactive: -0.017 | inactive: -0.089 | inactive: 0.025 | inactive: 0.198 | inactive: 0.054 | inactive: -0.062 | inactive: -0.033 | inactive: -0.059 | inactive: -0.046 | inactive: -0.395 | inactive: 0.052 | inactive: 0.042 | inactive: -0.206 | inactive: 0.164 | inactive: -0.016
15 | LIN28B (UniProt Q6ZN17) | inactive: 0.018 | inactive: -0.02 | inactive: 0.017 | inactive: -0.012 | inactive: -0.01 | inactive: 0.011 | inactive: 0.031 | inactive: 0.013 | inactive: -0.025 | inactive: -0.014 | inactive: -0.003 | inactive: 0.001 | inactive: 0.007 | inactive: -0.02 | inactive: 0.007 | inactive: -0.019 | inactive: 0.009 | inactive: -0.017 | inactive: 0.01 | inactive: 0.013
16 | LSM4 (UniProt Q9Y4Z0) | inactive: -0.009 | inactive: -0.002 | inactive: 0.048 | inactive: 0.003 | inactive: -0.018 | inactive: 0.007 | inactive: -0.002 | inactive: -0.024 | inactive: 0.022 | inactive: 0.01 | inactive: -0.004 | inactive: -0.016 | inactive: -0.015 | inactive: -0.023 | inactive: 0.013 | inactive: -0.021 | inactive: -0.043 | inactive: 0.005 | inactive: 0.005 | inactive: -0.02
